Compound in the experiment: [O-][N+](C(C1=C(C(O)=C2)NC(C(C=C3)=CC=C3Cl)C4C1C=CC4)=C2Cl)=O
The experiment can be described thus: melting temperature shift (compound 7 minus DMSO); higher = compound stabilises the protein. The following applies: 10 µM. As for the experimental part:
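Thermal proteome profiling (TMT mass spectrometry) in intact DAOY medulloblastoma cells or DAOY lysates treated with 10 µM compound 7 or DMSO, heated at 10 temperatures from 40.5 to 73.8 °C for 3 min. Melting curves were fitted with the Bioconductor TPP package, and the melting point difference between compound and vehicle is reported per protein (single curve per condition).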

Protein sequences, listed by entry. Tags and fused reporters are not part of them. Lines headed by an entry give the natural chain unless they say otherwise; changes in a name come on top.
UniProt P68366, whole entry: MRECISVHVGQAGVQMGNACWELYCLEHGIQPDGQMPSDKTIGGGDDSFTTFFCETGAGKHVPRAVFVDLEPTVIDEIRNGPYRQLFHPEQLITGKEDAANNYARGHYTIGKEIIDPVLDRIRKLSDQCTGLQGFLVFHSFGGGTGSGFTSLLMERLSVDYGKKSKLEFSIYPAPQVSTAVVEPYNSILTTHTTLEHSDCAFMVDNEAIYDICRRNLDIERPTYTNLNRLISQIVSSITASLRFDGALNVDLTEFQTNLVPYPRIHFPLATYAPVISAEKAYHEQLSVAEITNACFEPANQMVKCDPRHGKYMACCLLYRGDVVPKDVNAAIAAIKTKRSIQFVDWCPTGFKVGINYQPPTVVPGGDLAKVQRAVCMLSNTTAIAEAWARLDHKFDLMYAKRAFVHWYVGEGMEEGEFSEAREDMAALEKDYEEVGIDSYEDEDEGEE
UniProt O14983: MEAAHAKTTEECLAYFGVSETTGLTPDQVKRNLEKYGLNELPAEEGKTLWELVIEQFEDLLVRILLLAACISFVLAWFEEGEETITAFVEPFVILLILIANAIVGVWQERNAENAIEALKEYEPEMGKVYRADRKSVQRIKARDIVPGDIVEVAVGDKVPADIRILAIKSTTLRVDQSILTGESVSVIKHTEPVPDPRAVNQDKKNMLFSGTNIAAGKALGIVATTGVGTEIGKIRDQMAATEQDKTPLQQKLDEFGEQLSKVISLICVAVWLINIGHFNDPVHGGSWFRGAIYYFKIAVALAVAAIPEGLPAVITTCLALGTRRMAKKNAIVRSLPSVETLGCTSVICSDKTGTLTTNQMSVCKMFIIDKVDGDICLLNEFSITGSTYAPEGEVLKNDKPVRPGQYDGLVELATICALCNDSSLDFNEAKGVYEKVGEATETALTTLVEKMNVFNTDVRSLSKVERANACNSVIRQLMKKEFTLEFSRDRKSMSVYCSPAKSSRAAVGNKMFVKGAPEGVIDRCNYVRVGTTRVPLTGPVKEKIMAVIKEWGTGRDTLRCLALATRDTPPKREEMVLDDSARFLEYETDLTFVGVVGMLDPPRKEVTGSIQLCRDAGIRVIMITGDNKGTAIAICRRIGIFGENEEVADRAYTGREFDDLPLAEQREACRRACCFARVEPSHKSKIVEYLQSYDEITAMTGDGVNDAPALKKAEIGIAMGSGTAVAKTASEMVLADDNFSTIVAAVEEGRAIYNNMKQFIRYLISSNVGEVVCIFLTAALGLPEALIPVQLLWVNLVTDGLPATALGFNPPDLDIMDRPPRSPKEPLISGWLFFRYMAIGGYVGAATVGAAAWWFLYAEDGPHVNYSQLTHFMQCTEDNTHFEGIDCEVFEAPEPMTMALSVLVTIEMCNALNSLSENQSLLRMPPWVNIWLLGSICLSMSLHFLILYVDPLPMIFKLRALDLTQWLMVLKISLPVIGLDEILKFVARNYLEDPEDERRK
UniProt Q9Y2W1: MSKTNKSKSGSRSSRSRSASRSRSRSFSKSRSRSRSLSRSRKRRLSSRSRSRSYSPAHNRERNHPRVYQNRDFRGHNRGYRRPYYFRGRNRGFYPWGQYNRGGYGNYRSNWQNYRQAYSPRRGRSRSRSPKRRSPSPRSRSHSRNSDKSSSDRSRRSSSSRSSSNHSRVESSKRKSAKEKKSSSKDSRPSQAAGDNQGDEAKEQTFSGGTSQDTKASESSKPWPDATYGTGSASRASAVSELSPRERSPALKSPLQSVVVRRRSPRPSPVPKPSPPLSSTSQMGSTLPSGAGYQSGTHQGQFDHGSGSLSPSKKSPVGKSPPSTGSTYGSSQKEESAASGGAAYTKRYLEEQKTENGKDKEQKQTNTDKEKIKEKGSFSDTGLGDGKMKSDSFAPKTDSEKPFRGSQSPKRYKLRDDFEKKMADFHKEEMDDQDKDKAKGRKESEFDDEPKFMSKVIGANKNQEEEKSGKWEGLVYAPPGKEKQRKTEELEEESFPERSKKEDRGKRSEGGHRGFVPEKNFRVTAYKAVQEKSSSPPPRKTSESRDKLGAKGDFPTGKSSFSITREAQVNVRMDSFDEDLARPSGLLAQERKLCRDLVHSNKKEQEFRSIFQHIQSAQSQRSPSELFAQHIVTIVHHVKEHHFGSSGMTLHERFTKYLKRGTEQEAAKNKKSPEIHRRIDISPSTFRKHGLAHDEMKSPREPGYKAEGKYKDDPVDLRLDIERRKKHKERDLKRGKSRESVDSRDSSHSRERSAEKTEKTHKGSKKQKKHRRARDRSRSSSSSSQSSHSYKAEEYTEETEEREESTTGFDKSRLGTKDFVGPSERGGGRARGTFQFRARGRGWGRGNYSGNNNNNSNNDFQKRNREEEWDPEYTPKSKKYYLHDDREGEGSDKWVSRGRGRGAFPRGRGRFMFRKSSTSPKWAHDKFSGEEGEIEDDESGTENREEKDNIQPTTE
UniProt P53701: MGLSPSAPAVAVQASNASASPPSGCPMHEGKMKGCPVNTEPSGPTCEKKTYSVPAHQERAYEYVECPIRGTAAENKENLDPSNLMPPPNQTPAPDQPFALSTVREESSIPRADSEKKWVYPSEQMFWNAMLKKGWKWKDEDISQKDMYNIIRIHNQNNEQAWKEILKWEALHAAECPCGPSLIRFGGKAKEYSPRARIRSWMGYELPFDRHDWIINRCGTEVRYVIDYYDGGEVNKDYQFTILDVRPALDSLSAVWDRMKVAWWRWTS
UniProt Q9UF33: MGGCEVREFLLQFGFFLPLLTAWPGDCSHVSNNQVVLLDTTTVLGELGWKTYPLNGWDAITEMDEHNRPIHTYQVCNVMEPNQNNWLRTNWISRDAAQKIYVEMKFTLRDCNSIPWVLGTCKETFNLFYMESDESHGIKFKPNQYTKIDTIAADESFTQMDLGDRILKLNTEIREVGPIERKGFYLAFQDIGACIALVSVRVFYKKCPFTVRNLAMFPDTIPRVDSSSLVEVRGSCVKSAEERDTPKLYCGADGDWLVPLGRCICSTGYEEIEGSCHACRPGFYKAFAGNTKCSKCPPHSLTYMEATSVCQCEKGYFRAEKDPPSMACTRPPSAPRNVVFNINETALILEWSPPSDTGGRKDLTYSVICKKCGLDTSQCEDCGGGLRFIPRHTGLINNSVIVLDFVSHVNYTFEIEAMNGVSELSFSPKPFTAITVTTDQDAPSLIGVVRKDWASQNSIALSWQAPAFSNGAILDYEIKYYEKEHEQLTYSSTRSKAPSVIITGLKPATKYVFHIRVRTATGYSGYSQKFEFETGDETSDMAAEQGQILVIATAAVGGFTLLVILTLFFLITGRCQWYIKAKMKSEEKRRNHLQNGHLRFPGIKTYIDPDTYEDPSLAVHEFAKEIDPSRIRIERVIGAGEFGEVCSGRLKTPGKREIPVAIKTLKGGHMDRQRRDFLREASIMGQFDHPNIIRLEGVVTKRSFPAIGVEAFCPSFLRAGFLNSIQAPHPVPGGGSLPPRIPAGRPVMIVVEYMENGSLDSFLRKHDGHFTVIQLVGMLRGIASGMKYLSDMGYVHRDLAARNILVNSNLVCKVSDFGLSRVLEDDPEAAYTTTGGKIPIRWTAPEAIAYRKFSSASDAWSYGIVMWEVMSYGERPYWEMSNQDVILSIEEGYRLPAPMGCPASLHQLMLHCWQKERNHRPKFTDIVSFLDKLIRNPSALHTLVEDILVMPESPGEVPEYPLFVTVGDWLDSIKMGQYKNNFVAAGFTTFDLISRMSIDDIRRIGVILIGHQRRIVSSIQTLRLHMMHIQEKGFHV
UniProt Q9HBI1: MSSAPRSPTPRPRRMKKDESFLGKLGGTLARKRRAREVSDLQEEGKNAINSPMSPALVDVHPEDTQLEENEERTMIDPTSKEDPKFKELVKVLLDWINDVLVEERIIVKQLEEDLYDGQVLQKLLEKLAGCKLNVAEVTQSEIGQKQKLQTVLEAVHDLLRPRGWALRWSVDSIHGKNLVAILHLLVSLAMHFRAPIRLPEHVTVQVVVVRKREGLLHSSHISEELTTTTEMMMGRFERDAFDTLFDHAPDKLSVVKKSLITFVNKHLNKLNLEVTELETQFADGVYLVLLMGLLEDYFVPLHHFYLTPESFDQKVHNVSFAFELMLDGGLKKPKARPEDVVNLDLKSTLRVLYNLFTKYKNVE
UniProt Q9H9Q2: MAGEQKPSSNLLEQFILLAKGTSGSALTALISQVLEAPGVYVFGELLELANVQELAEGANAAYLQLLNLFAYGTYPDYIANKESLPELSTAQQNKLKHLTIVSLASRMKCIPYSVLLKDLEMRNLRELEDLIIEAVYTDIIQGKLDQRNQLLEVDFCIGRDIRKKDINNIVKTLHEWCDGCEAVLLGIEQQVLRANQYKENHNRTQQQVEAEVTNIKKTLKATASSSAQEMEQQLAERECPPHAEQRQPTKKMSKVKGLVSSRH
UniProt O43318: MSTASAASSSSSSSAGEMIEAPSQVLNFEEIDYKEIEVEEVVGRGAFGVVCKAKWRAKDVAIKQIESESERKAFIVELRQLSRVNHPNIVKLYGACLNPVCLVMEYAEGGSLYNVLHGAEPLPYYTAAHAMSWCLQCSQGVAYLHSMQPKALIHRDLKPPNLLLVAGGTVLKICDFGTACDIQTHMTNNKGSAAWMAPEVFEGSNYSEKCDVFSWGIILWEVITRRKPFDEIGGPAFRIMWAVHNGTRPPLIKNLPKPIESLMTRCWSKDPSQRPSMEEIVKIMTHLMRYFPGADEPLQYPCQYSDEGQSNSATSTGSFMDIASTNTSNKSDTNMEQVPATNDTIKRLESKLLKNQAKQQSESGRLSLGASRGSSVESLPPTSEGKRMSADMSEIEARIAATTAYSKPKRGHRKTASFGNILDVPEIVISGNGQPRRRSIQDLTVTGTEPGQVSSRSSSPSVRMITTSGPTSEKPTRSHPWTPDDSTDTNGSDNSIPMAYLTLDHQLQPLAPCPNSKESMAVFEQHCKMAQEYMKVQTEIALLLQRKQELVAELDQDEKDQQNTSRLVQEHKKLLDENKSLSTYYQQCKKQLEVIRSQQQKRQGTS
UniProt Q9UBV8: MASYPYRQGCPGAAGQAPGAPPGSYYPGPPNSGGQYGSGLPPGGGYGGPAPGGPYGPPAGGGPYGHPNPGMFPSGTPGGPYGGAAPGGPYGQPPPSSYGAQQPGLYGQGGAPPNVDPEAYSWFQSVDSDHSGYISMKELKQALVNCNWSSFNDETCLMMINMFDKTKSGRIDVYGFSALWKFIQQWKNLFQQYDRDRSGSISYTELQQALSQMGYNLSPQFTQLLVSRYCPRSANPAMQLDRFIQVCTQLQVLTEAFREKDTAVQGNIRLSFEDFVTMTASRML
UniProt Q8IYS1: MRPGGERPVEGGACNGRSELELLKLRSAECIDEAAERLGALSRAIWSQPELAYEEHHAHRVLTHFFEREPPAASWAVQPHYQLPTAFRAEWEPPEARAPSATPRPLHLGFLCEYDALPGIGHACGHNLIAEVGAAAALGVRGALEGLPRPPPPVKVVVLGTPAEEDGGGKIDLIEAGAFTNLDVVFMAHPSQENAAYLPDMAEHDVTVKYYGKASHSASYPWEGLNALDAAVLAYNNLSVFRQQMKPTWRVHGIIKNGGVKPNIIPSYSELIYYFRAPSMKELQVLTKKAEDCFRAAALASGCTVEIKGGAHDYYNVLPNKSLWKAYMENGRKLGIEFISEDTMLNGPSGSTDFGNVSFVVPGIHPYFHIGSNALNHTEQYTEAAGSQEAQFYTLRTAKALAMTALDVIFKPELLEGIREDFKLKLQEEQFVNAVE
UniProt O43167: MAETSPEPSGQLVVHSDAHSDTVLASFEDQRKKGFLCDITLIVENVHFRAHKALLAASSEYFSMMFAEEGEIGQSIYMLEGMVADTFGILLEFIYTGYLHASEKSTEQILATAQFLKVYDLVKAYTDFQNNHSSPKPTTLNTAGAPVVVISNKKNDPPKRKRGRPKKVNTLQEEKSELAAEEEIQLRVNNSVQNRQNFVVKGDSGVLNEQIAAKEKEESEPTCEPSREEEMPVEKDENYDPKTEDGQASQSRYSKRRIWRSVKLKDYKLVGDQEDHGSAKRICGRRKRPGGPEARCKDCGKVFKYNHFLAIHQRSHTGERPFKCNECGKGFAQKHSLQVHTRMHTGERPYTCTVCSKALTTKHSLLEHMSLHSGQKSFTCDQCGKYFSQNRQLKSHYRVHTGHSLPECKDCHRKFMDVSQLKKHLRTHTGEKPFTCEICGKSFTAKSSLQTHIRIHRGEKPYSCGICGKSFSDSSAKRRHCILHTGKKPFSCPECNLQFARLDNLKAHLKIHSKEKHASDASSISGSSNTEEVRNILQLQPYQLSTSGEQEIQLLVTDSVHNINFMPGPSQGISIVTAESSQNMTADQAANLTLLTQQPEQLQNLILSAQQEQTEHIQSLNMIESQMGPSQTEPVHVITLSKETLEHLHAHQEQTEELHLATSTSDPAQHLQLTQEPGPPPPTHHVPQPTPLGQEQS
UniProt Q99547: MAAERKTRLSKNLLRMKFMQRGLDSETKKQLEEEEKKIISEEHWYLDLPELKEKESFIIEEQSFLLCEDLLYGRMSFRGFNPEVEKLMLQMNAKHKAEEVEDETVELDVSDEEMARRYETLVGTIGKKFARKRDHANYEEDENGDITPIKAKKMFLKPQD

The mark [1] stands for this setting: system: DAOY cell lysate, treatment time: 20 min, 4 °C.
[2] abbreviates: system: intact DAOY cells, treatment time: 90 min, 37 °C.

Many values rest on one well or one pass, so single values are uncertain.

For TCEA1 (UniProt P23193), the melting temperature shift by setting is: under setting [1], -1.04 °C; under setting [2], -0.166 °C.
With NIFK (UniProt Q9BYG3), the melting temperature shift under setting [1] was determined as 1.34 °C and the melting temperature shift under setting [2] is -0.266 °C.
Take TUBA4A (UniProt P68366): the melting temperature shift is 0.48 °C under setting [1] and -0.166 °C under setting [2].
STK11 (UniProt Q15831): the melting temperature shift is 2.15 °C under setting [1] and -3.02 °C under setting [2].
Taken in the same sequence, the figures for ARL6IP5 (UniProt O75915) were 2.74 °C and -3.3 °C.
For SLC43A3 (UniProt Q8NBI5), the melting temperature shift runs as follows: under setting [1], 1.48 °C; under setting [2], -1.97 °C.
For the target CHMP7 (UniProt Q8WUX9), the melting temperature shift is -0.862 °C under setting [1] and -0.446 °C under setting [2].
Taken in the same sequence, the figures for UniProt Q6PL24 were 0.16 °C and 0.0139 °C.
Consider UniProt O14983, for which the melting temperature shift under setting [2] was -0.873 °C.
Regarding THRAP3 (UniProt Q9Y2W1), the melting temperature shift under setting [1] was determined as 0.77 °C and the melting temperature shift under setting [2] came out at 3.06 °C.
Take UniProt A6NIN4: the melting temperature shift is, setting by setting: under setting [1], 0.215 °C; under setting [2], 0.292 °C.
On to OARD1 (UniProt Q9Y530), for which the melting temperature shift runs as follows: under setting [1], -0.123 °C; under setting [2], 0.706 °C.
For FNDC3B (UniProt Q53EP0), the melting temperature shift was 0.173 °C under setting [1] and 0.0309 °C under setting [2].
HCCS (UniProt P53701): the melting temperature shift under setting [1] amounted to 1.72 °C and the melting temperature shift under setting [2] turned out to be 0.0149 °C.
Regarding EPHA6 (UniProt Q9UF33), the melting temperature shift under setting [2] was 1.49 °C.
Take UniProt Q9BVS4: the melting temperature shift under setting [2] is 0.401 °C.
Turning to PARVB (UniProt Q9HBI1), the melting temperature shift by setting is: under setting [1], -2.13 °C; under setting [2], -1.37 °C.
In the same order, the values of PAFAH2 (UniProt Q99487) are -0.195 °C and -0.0533 °C.
Consider CASP2 (UniProt P42575), for which the melting temperature shift under setting [1] worked out at 0.244 °C.
As for PSMD14 (UniProt O00487), the melting temperature shift under setting [1] is -0.609 °C and the melting temperature shift under setting [2] is -1.32 °C.
Consider KMT2D (UniProt O14686), for which the melting temperature shift under setting [1] is 1.19 °C.
As for SLC15A4 (UniProt Q8N697), the melting temperature shift under setting [2] was -0.772 °C.
As for DPM1 (UniProt O60762), the melting temperature shift is 0.788 °C under setting [1] and -0.822 °C under setting [2].
Take UniProt O95786: the melting temperature shift was found to be 0.379 °C under setting [1] and 1.39 °C under setting [2].
As for HAUS4 (UniProt Q9H6D7), the melting temperature shift under setting [1] came out at 1.08 °C.
As for NASP (UniProt P49321), the melting temperature shift runs as follows: under setting [1], -0.919 °C; under setting [2], 0.663 °C.
For the target COPS7B (UniProt Q9H9Q2), the melting temperature shift by setting is: under setting [1], -0.46 °C; under setting [2], 0.271 °C.
MOGS (UniProt Q13724): the melting temperature shift was 0.928 °C under setting [1] and -0.264 °C under setting [2].
Take MAP3K7 (UniProt O43318): the melting temperature shift is -0.685 °C under setting [1] and -1.45 °C under setting [2].
Consider PEF1 (UniProt Q9UBV8), for which the melting temperature shift is -1.27 °C under setting [1] and -0.157 °C under setting [2].
On to UniProt P10915, for which, under setting [1], the melting temperature shift came out at 0.403 °C.
The same measure, in the same setting: for PM20D2 (UniProt Q8IYS1) the value was 3.59 °C; for DHDDS (UniProt Q86SQ9), 3.73 °C.
For the target UniProt O43167, the melting temperature shift under setting [1] is 0.423 °C.
For the target UniProt Q5JWF2, the melting temperature shift under setting [2] is -0.542 °C.
Take MPHOSPH6 (UniProt Q99547): the melting temperature shift under setting [1] is -0.156 °C and the melting temperature shift under setting [2] was -0.875 °C.
As to UniProt P50226, the melting temperature shift under setting [2] was 0.594 °C.
Turning to CKAP5 (UniProt Q14008), the melting temperature shift under setting [1] was -0.716 °C and the melting temperature shift under setting [2] was -1.02 °C.

The record behind these values is the supplement of paper PMC10060354, “Discovery of a small molecule ligand of FRS2 that inhibits invasion and tumor growth” (Cellular Oncology, 2022).
